Reference: PubChem BioAssay AID1259415 (National Center for Advancing Translational Sciences (NCATS), 2018)
Among all 410,000 compounds or so, about 18,000 (4.4%) were called active. This list was built around the results that the source calls inconclusive (neither active nor inactive); the mix of calls is not that of the screen. Cut-off read from the data, not from the text of the source: active = activity change below about -60%; inconclusive = no clear call, values can overlap the other calls; inactive = above about -39%.

assay: qHTS Assay for inhibitors of the human cytomegalovirus (HCMV); conditions: HFF cells, HCMV-luciferase reporter, 72 h; at 57.5 µM; active compounds read low
In short: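 Two compound doses tested in HFFs infected with HCMV-luciferase, MOI 1 PFU/cell, 72 h at 37C. Lysate luminescence read with OneGlo; data normalized against buffer-only and 10uM Salinomycin inhibitor controls.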
% is set by controls: 0 for no effect and ±100 for the full control effect.

Structure (SMILES) | activity change, negative = inhibition
O=C(COC(=O)CCN1C(=O)/C(=C\C=C\c2ccccc2)SC1=S)Nc1cc(F)ccc1F | active: -62%
Nc1c(N(CCCO)C(=O)C2CCCCC2)c(=O)[nH]c(=O)n1Cc1ccccc1 | inactive: -35.3%
COC(=O)c1c(C)[nH]c(C(=O)OCC(=O)NC(C)(C)C)c1C | inconclusive: -52.7%
O=C1CS/C(=N\NC(=O)c2ccccc2)N1 | inactive: 21.2%
Cc1[nH]cnc1CSCc1ccc(F)cc1 | inactive: 15.4%
O=C(Nc1ccc(Cl)c(C(F)(F)F)c1)c1ccc2c(c1)CCN2S(=O)(=O)c1ccccc1 | active: -74.5%
CCCCn1cnc2sc3c(c2c1=N)CCCC3 | inconclusive: -50.9%
Cc1ccc(-c2c(C(=O)N/N=C/c3ccc4c(c3)OCO4)nnn2-c2nonc2N)cc1 | inconclusive: -45%
COc1cc(C(=O)Nc2cccc(C)c2C)c(Br)c(OC)c1OC | inconclusive: -46.5%
CCOC(=O)c1ccccc1NC(=O)c1ccc(F)cc1 | inactive: 14.1%
CCOc1ccc(C(=S)N2CCCC2)cc1OC | inactive: -8.32%
O=C(CCCl)N1CCN(c2nc(-c3ccccc3)cs2)CC1 | inconclusive: -41.9%
CC(=O)c1cc(NC(=O)c2ccccc2)c(=O)oc1C | inactive: 11%
CC(CCc1ccccc1)NS(=O)(=O)c1ccccc1 (stereo not given) | inconclusive: -46.9%
CCNC(=O)/C(C#N)=C/c1c(N2CCCCCC2)nc2c(C)cccn2c1=O | inconclusive: -59.2%
Cc1cc(C(=O)COC(=O)c2ccccc2O)c(C)n1Cc1cccs1 | active: -103%
COCCCN1C(=O)/C(=C\c2ccc3c(c2)OCO3)C(C(=O)OC)=C1C | inconclusive: -48.3%
Cc1ccc(NC(=O)Cn2c(=O)ccc3cc(S(=O)(=O)N4CCC(C)CC4)ccc32)c(C)c1 | inactive: 18.7%
COC(=O)c1sccc1NC(=S)N1CCN(c2cc(C)ccc2C)CC1 | inactive: -24.8%
COCCN1Cc2cccc(C(=O)NCc3ccccn3)c2C1=O | inconclusive: -45.4%
CCOC(=O)c1sc(NC(=O)c2ccc(S(=O)(=O)N3CCCCC3)cc2)nc1-c1ccccc1 | inconclusive: -48.4%
COc1ccc(-n2cc(C(=O)Nc3cc(F)ccc3F)c3ccccc3c2=O)cc1 | inconclusive: -43.5%
CCOC(=O)[C@]12Cc3cc(OC)ccc3[C@H]1N(CC(=O)OC)C(=O)c1cc(OC)ccc12 | active: -107%
Fc1ccc(-n2nnnc2-c2cnc(-c3cccs3)nc2C(F)(F)F)cc1 | active: -86.2%
CC(C)N(C(=O)C[n+]1ccc(/C=N/O)cc1)C(C)C | inactive: -19.4%
O=C(/C=C/c1ccccc1)NC(=S)Nc1ccc2c3c(cccc13)CC2 | inactive: 26.8%
Cc1cc(C)c2nc(N3CCC(C(=O)NCCCN4CCCCC4)CC3)sc2c1 | active: -103%
CCOCCCNC(=O)CC1Oc2ccc(C)cc2NC1=O (stereo not given) | inconclusive: -54.9%

Structure (SMILES) | activity change, negative = inhibition
O=C(NCc1ccccc1Cl)c1ccc(S(=O)(=O)NCc2ccco2)cc1 | inactive: -18.6%
CCCCn1c(SCC(=O)N2CCCC2)nc2cc(S(N)(=O)=O)ccc21 | inconclusive: -48%
Cc1ccc(CNC(=O)CN2C(=O)CSc3ccc(S(=O)(=O)N(C)C)cc32)cc1 | inactive: 7.84%
CN(C(=O)c1cccc(NC(=O)Cc2ccc(NC(=O)C3CCN(C(=O)C4CC4)CC3)cc2)c1)C1CCCCC1 | inactive: 18%
O=S(=O)(c1ccc(Br)cc1)N1CCCN(Cc2cccc(F)c2)CC1 | inactive: -0.119%
c1ccc(-c2csc3ncn4cnnc4c23)cc1 | inconclusive: -51.3%
COc1cccc(N2[C@@H](CC(=O)O)c3ccc(/C=C/C(=O)O)cc3S2(=O)=O)c1 | inconclusive: -59.7%
CC(NC(=O)CCC(=O)N1CCN(S(=O)(=O)c2ccc(Cl)cc2)CC1)c1ccccc1 (stereo not given) | inconclusive: -58.1%
Cc1noc(C)c1CSCC(=O)Nc1ccc(OC(F)F)c(Cl)c1 | inconclusive: -45.9%
Cc1ccc(COC(=O)c2cc([N+](=O)[O-])ccc2N2CCOCC2)cc1 | active: -63.3%
COC(=O)c1sc(NC(=O)CCCn2nc([N+](=O)[O-])cc2C)c(C(=O)OC)c1C | inconclusive: -51.5%
CCN(C(=O)Cn1cc(C(F)(F)F)ccc1=O)c1c(N)n(Cc2ccccc2)c(=O)[nH]c1=O | inconclusive: -44.9%
Cc1ccccc1NC(=S)c1ccc2ccccc2n1 | active: -62.8%
Cc1cc(-n2c(C)cc(C(=O)CSc3nc(N)cc(=O)[nH]3)c2C)no1 | inconclusive: -44.2%
CCCCCc1c(-c2ccc(OC)c(OC)c2)ncn1CCc1ccccc1OC | active: -102%
CCOC(=O)c1c(C)c(C(=O)N2CCN(c3ccc(F)cc3)CC2)c(C)n1C | inconclusive: -50.4%
O=C(N/N=C/c1c(O)ccc2ccccc12)C(=O)N1CCCC1 | active: -75%
COc1cccc(C(=O)NC(=S)Nc2cccnc2)c1 | inactive: 69.8%
CCCOc1ccc(CNC(=O)c2ccc3c(c2)N(Cc2ccccc2)CCS3)cc1 | inactive: -31.5%
Cc1ccc(NC(=O)c2cc(N3C(=O)C=CC3=O)ccc2N2CCOCC2)cc1 | inconclusive: -56.7%
O=C(NC1CC1)C1CCCN(C(=O)Nc2ccc(F)cc2)C1 (stereo not given) | inconclusive: -42.2%
COc1ccccc1-c1noc(-c2ccc(N3CCN(C)CC3)c([N+](=O)[O-])c2)n1 | inconclusive: -57.2%
Cc1cc(N2CCN(C3CCCCC3)CC2)nc2cccc(O)c12 | inconclusive: -42.2%
C/C(COc1ccccc1)=N\NC(=O)c1nnn(-c2nonc2N)c1-c1ccc(C)cc1 | inconclusive: -46.9%
COc1ccc(N(C(=O)c2snc(C(N)=O)c2N)C(C(=O)NC2CCCC2)c2ccc(OC)c(OC)c2)cc1 (stereo not given) | inactive: -13.1%
O=C(C#Cc1ccccc1)N[C@H]1CC[C@@]23CCCN2C(=O)CCC[C@H]3[C@H]1Cc1ccccc1 | inconclusive: -43.4%
CCNC(=S)N(CCc1c(C)[nH]c2ccc(Cl)cc12)Cc1ccco1 | inconclusive: -56.3%

Fetched by structure from the entries so far:
Structure (SMILES) | activity change, negative = inhibition
O=C(NCc1ccccc1Cl)c1ccc(S(=O)(=O)NCc2ccco2)cc1 | inactive: -18.6%
Cc1cc(N2CCN(C3CCCCC3)CC2)nc2cccc(O)c12 | inconclusive: -42.2%
CC(NC(=O)CCC(=O)N1CCN(S(=O)(=O)c2ccc(Cl)cc2)CC1)c1ccccc1 (stereo not given) | inconclusive: -58.1%
Cc1noc(C)c1CSCC(=O)Nc1ccc(OC(F)F)c(Cl)c1 | inconclusive: -45.9%
